Among the data in paper PMC12412785 are binding values, retold here.

No constants are given. Whether binding was seen depends on the method and setting. A result given as binding can be weak or reduced; the word gives no strength. Tags and fused reporters may be left off the sequences shown.

In the experiment the target is T1, Arabidopsis thaliana BRCA2A (AtBRCA2A), yeast two-hybrid fusion (A. thaliana) (UniProt Q7Y1C5).
T1 sequence: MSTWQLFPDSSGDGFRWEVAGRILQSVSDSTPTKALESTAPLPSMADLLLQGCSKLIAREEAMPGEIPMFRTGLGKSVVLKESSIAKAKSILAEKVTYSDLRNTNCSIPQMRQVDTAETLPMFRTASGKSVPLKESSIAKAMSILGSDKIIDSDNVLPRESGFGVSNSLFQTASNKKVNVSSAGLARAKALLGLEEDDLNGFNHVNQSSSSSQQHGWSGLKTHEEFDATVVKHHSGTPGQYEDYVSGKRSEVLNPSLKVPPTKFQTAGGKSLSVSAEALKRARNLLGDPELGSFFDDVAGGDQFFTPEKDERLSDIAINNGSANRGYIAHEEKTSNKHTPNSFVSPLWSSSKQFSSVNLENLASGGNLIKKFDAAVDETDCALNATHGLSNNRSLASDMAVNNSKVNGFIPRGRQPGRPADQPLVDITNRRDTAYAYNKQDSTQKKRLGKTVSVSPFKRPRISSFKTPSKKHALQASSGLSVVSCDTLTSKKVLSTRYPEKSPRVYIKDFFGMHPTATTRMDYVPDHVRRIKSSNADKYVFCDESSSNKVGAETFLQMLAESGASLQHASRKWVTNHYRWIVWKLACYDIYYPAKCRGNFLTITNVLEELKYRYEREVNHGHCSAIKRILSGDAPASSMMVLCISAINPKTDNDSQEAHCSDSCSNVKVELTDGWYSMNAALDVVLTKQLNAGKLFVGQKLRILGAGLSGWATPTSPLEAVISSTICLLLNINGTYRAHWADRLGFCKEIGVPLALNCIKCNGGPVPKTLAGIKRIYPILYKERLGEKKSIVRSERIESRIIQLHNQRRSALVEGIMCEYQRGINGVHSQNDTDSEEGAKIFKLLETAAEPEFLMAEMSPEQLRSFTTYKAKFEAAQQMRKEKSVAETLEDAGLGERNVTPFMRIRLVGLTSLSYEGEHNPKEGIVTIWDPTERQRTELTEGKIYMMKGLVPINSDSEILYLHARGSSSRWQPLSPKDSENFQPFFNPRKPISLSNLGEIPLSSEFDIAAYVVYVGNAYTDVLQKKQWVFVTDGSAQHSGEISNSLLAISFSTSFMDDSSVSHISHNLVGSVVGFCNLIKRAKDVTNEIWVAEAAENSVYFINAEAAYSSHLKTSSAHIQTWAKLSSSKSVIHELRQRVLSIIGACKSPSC
The experiment is described as follows: two-hybrid; Gal4BD and Gal4AD fusions, AH109 x Y187 diploids, five-fold serial dilutions on SD/-LWH and SD/-LWHA, 3–5 days at 30°C.

On to “PpRAD51-2, yeast two-hybrid fusion (P. patens)”, for which the binding result is given as “binds”.
